Literature values, collected in patent US20050123591A1, “Wound coverings for removal of interfering factors from wound fluid” (Beiersdorf AG, priority 1998, published 2005).
At least one compound was matched to its structure with a doubt left.

Columns and labels:
[1] = system: ferritin and haemosiderin; settings: dissolved DFO, in vitro
[2] = system: wound; settings: animal studies, systemic administration
[3] = system: haemoglobin and myoglobin; settings: in vitro

For `CC(=O)N(O)CCCCCNC(=O)CCC(=O)N(O)CCCCCNC(=O)CCC(=O)N(O)CCCCCN` [DFO, 30-amino-3,14,25-trihydroxy-3,9,14,20,25-pentaasa-triacontane-2,10,13,21,24-pentaone], the “iron dissolved out of ferritin and haemosiderin” value [1] is listed as “iron can be dissolved out up to the maximum saturation of DFO”, the wound contraction [2] is listed as “accelerated wound contraction” and the “removal of iron from the porphyrin ring of haemoglobin and myoglobin” value [3] is listed as “iron cannot be removed”.
